Measurements reported in paper PMC2278140, “Regulation of the cd38 promoter in human airway smooth muscle cells by TNF-α and dexamethasone”.

By UniProt entry, the sequences of proteins in these tests, tags left out.
UniProt P01100, whole entry: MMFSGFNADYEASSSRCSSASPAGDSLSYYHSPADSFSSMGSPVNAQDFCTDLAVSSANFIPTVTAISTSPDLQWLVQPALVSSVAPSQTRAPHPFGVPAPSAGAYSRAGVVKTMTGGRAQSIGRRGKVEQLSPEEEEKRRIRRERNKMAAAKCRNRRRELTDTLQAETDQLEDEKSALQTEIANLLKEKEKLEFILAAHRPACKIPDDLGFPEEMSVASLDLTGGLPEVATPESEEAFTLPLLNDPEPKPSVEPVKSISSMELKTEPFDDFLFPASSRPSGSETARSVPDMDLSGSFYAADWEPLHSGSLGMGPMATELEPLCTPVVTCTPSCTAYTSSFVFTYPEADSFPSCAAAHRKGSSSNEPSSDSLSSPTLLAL
UniProt P05412, whole entry: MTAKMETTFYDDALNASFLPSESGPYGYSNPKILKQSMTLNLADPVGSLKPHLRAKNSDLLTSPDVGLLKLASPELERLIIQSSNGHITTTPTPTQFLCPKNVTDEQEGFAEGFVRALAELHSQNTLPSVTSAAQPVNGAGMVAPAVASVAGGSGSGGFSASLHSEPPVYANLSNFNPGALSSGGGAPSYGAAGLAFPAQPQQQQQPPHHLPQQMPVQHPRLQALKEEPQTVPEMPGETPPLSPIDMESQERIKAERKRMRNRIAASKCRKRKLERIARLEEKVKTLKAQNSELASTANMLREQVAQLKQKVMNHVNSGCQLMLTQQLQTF

Key:
[1] = target: T1, glucocorticoid receptor (GR) (human) (UniProt P04150); test: competition with a labelled probe; details: excess unlabeled vs labeled GRE consensus; 20% glycerol, 5 mM MgCl2, 2.5 mM EDTA, 2.5 mM DTT, 250 mM NaCl, 50 mM Tris-HCl pH 7.5, 0.25 mg/ml poly(dI-dC), room temperature 30 min; 0.4 pmol probe in 10 μl; commercial protein; label: 32P 5' end
T1 sequence (looked up, limits assumed): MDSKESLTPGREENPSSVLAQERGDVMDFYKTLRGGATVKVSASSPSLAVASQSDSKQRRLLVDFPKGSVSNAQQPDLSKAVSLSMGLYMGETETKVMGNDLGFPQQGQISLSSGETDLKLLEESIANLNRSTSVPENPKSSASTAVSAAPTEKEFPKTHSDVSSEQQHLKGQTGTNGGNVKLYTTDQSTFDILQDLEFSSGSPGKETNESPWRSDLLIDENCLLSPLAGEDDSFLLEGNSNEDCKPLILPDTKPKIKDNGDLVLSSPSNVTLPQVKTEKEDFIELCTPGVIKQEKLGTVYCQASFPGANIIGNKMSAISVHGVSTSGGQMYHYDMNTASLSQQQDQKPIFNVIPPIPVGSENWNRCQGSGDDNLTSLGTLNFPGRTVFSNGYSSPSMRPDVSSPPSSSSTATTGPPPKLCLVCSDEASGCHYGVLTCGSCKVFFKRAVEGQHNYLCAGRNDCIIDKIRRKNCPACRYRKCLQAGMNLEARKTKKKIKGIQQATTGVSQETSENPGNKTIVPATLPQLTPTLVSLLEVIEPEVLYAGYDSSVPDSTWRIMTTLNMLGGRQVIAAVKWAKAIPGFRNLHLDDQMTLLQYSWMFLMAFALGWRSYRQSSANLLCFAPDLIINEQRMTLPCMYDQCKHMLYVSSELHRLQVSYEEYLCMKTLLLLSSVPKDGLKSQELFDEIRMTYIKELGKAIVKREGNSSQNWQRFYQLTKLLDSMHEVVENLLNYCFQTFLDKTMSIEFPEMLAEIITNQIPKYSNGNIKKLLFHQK

[2] = target: c-Fos (AP-1 complex) (human) (UniProt P01100); test: EMSA supershift; details: anti-c-Fos; 20% glycerol, 5 mM MgCl2, 2.5 mM EDTA, 2.5 mM DTT, 250 mM NaCl, 50 mM Tris-HCl pH 7.5, 0.25 mg/ml poly(dI-dC), room temperature 30 min; 0.4 pmol probe in 10 μl; protein in an extract; label: 32P 5' end
[3] = target: c-Fos (AP-1 complex) (human) (UniProt P01100); test: competition with a labelled probe; details: excess unlabeled self vs labeled AP1-4; 20% glycerol, 5 mM MgCl2, 2.5 mM EDTA, 2.5 mM DTT, 250 mM NaCl, 50 mM Tris-HCl pH 7.5, 0.25 mg/ml poly(dI-dC), room temperature 30 min; 0.4 pmol probe in 10 μl; protein in an extract; label: 32P 5' end
[4] = target: c-Jun (AP-1 complex) (human) (UniProt P05412); test: competition with a labelled probe; details: excess unlabeled vs labeled AP-1 consensus, 20% glycerol, 5 mM MgCl2, 2.5 mM EDTA, 2.5 mM DTT, 250 mM NaCl, 50 mM Tris-HCl pH 7.5, 0.25 mg/ml poly(dI-dC), room temperature 30 min, 0.4 pmol probe in 10 μl, protein in an extract
[5] = target: c-Jun (AP-1 complex) (human) (UniProt P05412); test: EMSA supershift; details: anti-c-Jun, TNF-α-treated cells; 20% glycerol, 5 mM MgCl2, 2.5 mM EDTA, 2.5 mM DTT, 250 mM NaCl, 50 mM Tris-HCl pH 7.5, 0.25 mg/ml poly(dI-dC), room temperature 30 min; 0.4 pmol probe in 10 μl; protein in an extract; label: 32P 5' end

“AAGCACTGCCATGTTCTCACTTATAAGT (double strand) [GRE3]”: no binding [1].

“ATCATCTTTGACTCATCTCTTTC (double strand) [AP1-4]”: binds [2]; binds [3]; binds ([4]; label: 32P 5' end).

“CAATTCTTGAATCATGCCTCT (double strand) [AP1-6]”: binds [4].

“CGCTTGATGACTCAGCCGGAA (double strand) [AP-1 consensus]”: binds [5].

“GCCATTGTAACTGTTCTCCATCCTTATC (double strand) [GRE4]”: no binding [1].

Construct, isoform or probe ends are uncertain for at least one entry. For some of these results: A negative result means that nothing was seen under these conditions. For some of these results: Protein sequences can lack the tags named with them. For some of these results: At least one result comes from cells or an extract, where the contact may be indirect. For some of these results: At least one verdict rests on a figure or table, not on a statement of the authors.
